Our source for the binding values is PMC8299592.

Sequences of proteins named here, by UniProt entry; tags and fusion partners are left off. A change or cut given only in a name is not applied to a line headed by its entry.
UniProt Q22CV9: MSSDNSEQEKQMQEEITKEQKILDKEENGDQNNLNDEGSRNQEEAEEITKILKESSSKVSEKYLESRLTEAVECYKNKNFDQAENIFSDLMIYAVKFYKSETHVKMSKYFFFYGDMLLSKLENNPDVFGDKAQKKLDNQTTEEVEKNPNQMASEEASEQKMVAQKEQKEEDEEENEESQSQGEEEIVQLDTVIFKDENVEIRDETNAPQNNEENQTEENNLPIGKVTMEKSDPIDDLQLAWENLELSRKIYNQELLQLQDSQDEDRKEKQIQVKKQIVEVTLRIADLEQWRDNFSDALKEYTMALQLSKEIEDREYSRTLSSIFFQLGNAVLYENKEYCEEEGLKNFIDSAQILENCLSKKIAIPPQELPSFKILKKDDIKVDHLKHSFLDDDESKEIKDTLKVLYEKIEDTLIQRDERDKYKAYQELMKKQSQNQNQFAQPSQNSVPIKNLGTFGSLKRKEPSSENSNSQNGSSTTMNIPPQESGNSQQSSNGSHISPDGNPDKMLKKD
UniProt Q22RG7: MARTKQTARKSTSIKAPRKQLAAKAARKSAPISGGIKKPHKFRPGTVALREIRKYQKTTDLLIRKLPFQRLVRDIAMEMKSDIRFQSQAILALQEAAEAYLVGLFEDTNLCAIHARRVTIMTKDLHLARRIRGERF
UniProt P69150: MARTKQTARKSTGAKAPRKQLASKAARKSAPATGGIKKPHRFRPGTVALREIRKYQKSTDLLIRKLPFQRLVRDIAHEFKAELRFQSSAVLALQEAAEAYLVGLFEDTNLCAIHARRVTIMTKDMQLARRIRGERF
UniProt P41353: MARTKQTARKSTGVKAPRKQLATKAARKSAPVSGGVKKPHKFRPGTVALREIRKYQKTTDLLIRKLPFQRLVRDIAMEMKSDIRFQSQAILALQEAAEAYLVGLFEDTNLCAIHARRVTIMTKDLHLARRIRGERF

These are yes or no findings as the source states them, for the method shown. Binding seen in cells or lysates may run through a third protein. Here binding means that the protein was enriched with, or labelled near, the bait; the list need not be complete. No binding means not detected with the bait. Tags and fused reporters may be left off the sequences shown.

First the molecules themselves.
B1: Rad51 (protein, UniProt O76341 1-331)
chain: MAEYAEDVEQSDGPMLIAKLEEHGINNADVKKLIDAGFQTVESISYTAKKNLLQIKGMTEAKIDKILDVAAKLVPNDFQTAAEYYVKRQSVINLTTGSTELDKLLGGGFETGSLTEIFGEFRTGKTQICHTLCITCQLPKEKGGGEGKAMYIDTEGTFRPERLESIAERFGLDPQECMENVAYARAFNCDQQNKLLVQAAALMAESKYALLIVDSATALYRTDYSGRGELSVRQNHLGKFLRNLQRLADEFGIAVVITNQVMSQVDGAAMFAGDMKKPIGGNIMAHASTTRLYLRKGRGESRICKIYDSPCLPESEAIYAIGKGGIEDFNE
B2: centromeric histone Cna1p (protein, UniProt Q2N2K6 1-187)
chain: MARKAYQPKRRSNSNQNQQRSDSLKKNKQDNLRSKSAGNQQGNEKNKKDIQDQRNKASTKKKRESSGEKYESARDKVIRRFRPGDNALKQLRQYNQTPSLLIRKLPFQRLIREISTRMTEEDSLRWTSFALVLLQTVVEDYMVSFFEDANACALHAKRVTLMSKDLALAARIRGQKNVTGIFIPTKK

For this test, the target named is Nrp1-HA (NASP-related protein 1, endogenously tagged) (Tetrahymena thermophila) (UniProt Q22CV9). The test can be described thus: affinity purification with mass spectrometry; Nrp1-HA captured on anti-HA agarose from clarified whole cell lysate of conjugating cells (2 h post-mixing), 4 °C overnight, washes with TBS plus 0.05% Tween-20; LC-MS/MS; proteins detected in WT data sets removed.
For the molecule “histone H3.4 (from UniProt Q22RG7 1-136)”, the binding entry is listed as “binds”.

In the case of “histone H3.2 (from UniProt P69150 1-136)”, the binding entry is listed as “binds”.

Turning to “histone H3.3 (from UniProt P41353 1-136)”, the binding result is on record as “binds”.

Take “histone H3.1 (from UniProt P69150 1-136)”: the binding entry is reported as “binds”.

Take B1: the binding entry is reported as “binds”.

In the case of B2, the binding entry is recorded as “no binding”.
